The target of assay [1] is T1, PDCD4 in H1650 cells (human (endogenous in H1650)) (UniProt Q53EL6).
T1 sequence: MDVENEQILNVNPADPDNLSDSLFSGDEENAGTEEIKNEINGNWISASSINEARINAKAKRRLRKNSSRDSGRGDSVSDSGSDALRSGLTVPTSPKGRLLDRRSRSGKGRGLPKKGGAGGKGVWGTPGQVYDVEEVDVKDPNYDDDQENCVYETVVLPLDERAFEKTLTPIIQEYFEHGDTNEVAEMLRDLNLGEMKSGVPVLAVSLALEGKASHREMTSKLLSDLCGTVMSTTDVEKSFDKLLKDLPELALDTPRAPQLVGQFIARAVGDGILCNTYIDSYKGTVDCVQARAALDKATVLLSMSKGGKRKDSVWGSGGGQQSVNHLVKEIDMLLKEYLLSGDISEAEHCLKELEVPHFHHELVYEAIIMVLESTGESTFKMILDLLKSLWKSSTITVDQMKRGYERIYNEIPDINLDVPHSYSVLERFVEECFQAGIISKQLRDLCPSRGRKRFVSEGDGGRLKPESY
The experiment in a line: co-IP; H1650 lung cancer cell lysate.

Sequences of proteins named here, by UniProt entry; tags and fusion partners are left off.
UniProt Q9NZJ0: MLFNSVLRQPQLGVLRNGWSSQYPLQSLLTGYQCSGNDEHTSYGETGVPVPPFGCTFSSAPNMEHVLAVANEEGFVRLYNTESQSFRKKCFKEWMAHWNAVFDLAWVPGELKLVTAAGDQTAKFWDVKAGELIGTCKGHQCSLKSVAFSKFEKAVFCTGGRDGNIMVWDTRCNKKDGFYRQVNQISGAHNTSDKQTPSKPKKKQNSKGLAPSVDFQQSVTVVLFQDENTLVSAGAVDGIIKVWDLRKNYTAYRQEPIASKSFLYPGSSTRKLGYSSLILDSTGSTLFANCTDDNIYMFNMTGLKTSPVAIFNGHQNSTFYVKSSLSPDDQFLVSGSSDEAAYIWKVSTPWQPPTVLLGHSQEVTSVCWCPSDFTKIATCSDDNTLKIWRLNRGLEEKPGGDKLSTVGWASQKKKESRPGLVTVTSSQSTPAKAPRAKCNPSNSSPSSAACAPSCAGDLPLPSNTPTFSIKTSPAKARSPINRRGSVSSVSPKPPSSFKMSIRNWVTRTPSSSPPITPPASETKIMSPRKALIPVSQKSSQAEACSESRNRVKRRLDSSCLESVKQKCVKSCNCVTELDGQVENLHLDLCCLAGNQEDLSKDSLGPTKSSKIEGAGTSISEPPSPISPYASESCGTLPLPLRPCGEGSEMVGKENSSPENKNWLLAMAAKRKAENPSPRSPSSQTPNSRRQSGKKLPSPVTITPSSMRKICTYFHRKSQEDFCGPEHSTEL

The target of assay [2] is T2, Programmed cell death 4 (PDCD4) (human (endogenous in 293T)) (UniProt Q53EL6).
T2 sequence: T1 sequence
The experiment in a line: co-IP; endogenous proteins; 293T lysates prepared by weak RIPA lysis; precipitated by DTL antibody (IgG as negative control) or by PDCD4 antibody.

Assay [3] concerns the target T3, His-PDCD4(S67A) (human) (UniProt Q53EL6).
T3 sequence: T1 sequence with S67A
The experiment in a line: co-IP; HA-DTL, His-PDCD4 and His-PDCD4(S67A) transfected into 293T; precipitated with His tag antibodies.

Assay [4] concerns the target Endogenous DTL (human (endogenous in 293T)) (UniProt Q9NZJ0). As to the kind of experiment: co-IP; endogenous proteins; 293T lysates prepared by weak RIPA lysis; precipitated by DTL antibody (IgG as negative control) or by PDCD4 antibody.

Positions count from the first letter of the chain named. Results are given in words; binding and its absence hold for the method and conditions named. Binding seen in cells or lysates may run through a third protein. Some entries that bind do so weakly or less than the wild type. For some of these results: Tags and fused reporters may be left off the sequences shown.

For the molecule “DTL in H1650 cells (from UniProt Q9NZJ0 1-730)”, the binding entry in assay [1] was “binds”.

Take “Endogenous DTL (from UniProt Q9NZJ0 1-730)”: in assay [2], the binding result is “binds”.

As for HA-DTL (from UniProt Q9NZJ0 1-730), in assay [3], the binding result is reported as “no binding”.

B1: Programmed cell death 4 (PDCD4) (protein, UniProt Q53EL6 1-469)
chain: T1 sequence
With B1, the binding entry in assay [4] was “binds”.

Values taken from paper PMC6693180.
